Reference: patent US20250161338A1, “Compounds for Anti-aging Intervention” (AGENCY FOR SCIENCE, TECHNOLOGY AND RESEARCH, priority 2022, published 2025)
At least one compound was matched to its structure with a doubt left.

System: prototrophic yeast strain (CEN.PK113-7D)
Assay: Propidium iodide fluorescence-based CLS method in yeast (incl. high-throughput screening)
Type: cell-based, Saccharomyces cerevisiae
Settings: concentration tested 100 μM; Yes/No call of the screen
Procedure: Yeast strain was recovered from frozen glycerol stock at 30° C. on YPD agar medium. Yeast was left to propagate in SD medium overnight at 30° C. with shaking at 220 revolutions per minute (rpm). Cells propagated overnight were diluted to a starting optical density at 600 nm (OD600) of approximately 0.2 in fresh SD medium to begin the chronological lifespan (CLS) experiments.
CLS experiments were performed in 96-well plates with 200 μL yeast culture. Cellular inoculums were transferred into 96-well plates containing serially double-diluted concentrations (0 to 10 nM) of rapamycin. […] Cells were incubated at 30° C., and the growth was measured at different time points. […] Cell survival was quantified at various age time points by three different approaches: (i) PI fluorescence-based method, (ii) outgrowth in YPD liquid medium, and (iii) spotting assay (FIG. 1).
Yeast cells (40 μL) from different age time points were transferred into a second 96-well plate (different to the 96-well plate in which the CLS analysis as outlined above was performed). […] Positive and negative control samples were included for quantitative analysis. […] The fluorescence reading of the samples (excitation and emission wavelengths at 535 nm and 617 nm, respectively) and OD600 were measured with a microplate reader (BioTek, Winooski, Vermont, United States). The fluorescence intensity of each sample was normalized with OD600. […]

Cc1cc2c(C(C)C)c(O)c(O)c(C=O)c2c(O)c1-c1c(C)cc2c(C(C)C)c(O)c(O)c(C=O)c2c1O [Gossypol]
Yeast CLS increase: No
